Source: PMC8038998

Target: T1, Metastasis Associated in Colon Cancer 1 (MACC1), endogenous in SW620 cells (human (endogenous in SW620)) (UniProt Q6ZN28)
T1 sequence: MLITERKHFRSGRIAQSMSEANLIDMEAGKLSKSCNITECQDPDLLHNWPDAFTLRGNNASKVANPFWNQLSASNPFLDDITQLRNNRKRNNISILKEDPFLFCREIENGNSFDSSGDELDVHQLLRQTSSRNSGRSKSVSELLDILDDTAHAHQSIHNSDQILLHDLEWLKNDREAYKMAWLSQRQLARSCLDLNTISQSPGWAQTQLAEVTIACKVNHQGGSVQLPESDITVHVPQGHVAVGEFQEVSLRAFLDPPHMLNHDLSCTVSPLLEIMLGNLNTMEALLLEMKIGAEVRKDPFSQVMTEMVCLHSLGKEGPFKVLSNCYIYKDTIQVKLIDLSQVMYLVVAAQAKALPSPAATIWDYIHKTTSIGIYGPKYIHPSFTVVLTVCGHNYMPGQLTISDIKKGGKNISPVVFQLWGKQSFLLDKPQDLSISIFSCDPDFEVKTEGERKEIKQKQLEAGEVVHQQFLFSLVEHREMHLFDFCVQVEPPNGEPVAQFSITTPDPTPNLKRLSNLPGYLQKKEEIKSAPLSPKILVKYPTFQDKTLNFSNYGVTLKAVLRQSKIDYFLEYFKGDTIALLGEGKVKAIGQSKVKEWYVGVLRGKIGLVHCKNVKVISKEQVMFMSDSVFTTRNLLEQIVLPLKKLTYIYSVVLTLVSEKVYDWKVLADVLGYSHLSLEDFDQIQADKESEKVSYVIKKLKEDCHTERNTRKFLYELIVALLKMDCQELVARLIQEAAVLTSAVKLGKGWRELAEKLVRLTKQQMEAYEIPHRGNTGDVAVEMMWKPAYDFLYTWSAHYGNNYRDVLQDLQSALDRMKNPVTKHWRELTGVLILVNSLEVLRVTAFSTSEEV
Experiment: affinity purification with mass spectrometry; immunoprecipitation of SW620 cells with two polyclonal rabbit anti-human MACC1 antibodies (HPA020103, HPA020081), 4 times independently; shot-gun proteomics (Q-Exactive, MaxQuant)

- binding: binds
B1: dynamin 1 (DNM1) (protein, UniProt Q05193 1-864)
chain: MGNRGMEDLIPLVNRLQDAFSAIGQNADLDLPQIAVVGGQSAGKSSVLENFVGRDFLPRGSGIVTRRPLVLQLVNATTEYAEFLHCKGKKFTDFEEVRLEIEAETDRVTGTNKGISPVPINLRVYSPHVLNLTLVDLPGMTKVPVGDQPPDIEFQIRDMLMQFVTKENCLILAVSPANSDLANSDALKVAKEVDPQGQRTIGVITKLDLMDEGTDARDVLENKLLPLRRGYIGVVNRSQKDIDGKKDITAALAAERKFFLSHPSYRHLADRMGTPYLQKVLNQQLTNHIRDTLPGLRNKLQSQLLSIEKEVEEYKNFRPDDPARKTKALLQMVQQFAVDFEKRIEGSGDQIDTYELSGGARINRIFHERFPFELVKMEFDEKELRREISYAIKNIHGIRTGLFTPDMAFETIVKKQVKKIREPCLKCVDMVISELISTVRQCTKKLQQYPRLREEMERIVTTHIREREGRTKEQVMLLIDIELAYMNTNHEDFIGFANAQQRSNQMNKKKTSGNQDEILVIRKGWLTINNIGIMKGGSKEYWFVLTAENLSWYKDDEEKEKKYMLSVDNLKLRDVEKGFMSSKHIFALFNTEQRNVYKDYRQLELACETQEEVDSWKASFLRAGVYPERVGDKEKASETEENGSDSFMHSMDPQLERQVETIRNLVDSYMAIVNKTVRDLMPKTIMHLMINNTKEFIFSELLANLYSCGDQNTLMEESAEQAQRRDEMLRMYHALKEALSIIGDINTTTVSTPMPPPVDDSWLQVQSVPAGRRSPTSSPTPQRRAPAVPPARPGSRGPAPGPPPAGSALGGAPPVPSRPGASPDPFGPPPQVPSRPNRAPPGVPSRSGQASPSRPESPRPPFDL

No constants are given. Whether binding was seen depends on the method and setting. Binding seen in cells or lysates may run through a third protein. A yes stands for co-enrichment or nearness to the bait. Other partners may have been found.
